The numbers were not newly measured in patent US11749383B2, “Methods and systems of predicting agent induced effects in silico” (The Regents of the University of California, priority 2016, dated 2023), which cites them from elsewhere.

What is called IC50 is the concentration that gives 50% inhibition.

This data set relates to native IKs. The settings on record: read-out: IC50, IKs block; 500 ms; cited from earlier work.

Turning to `CCCCc1oc2ccccc2c1C(=O)c1cc(I)c(OCCN(CC)CC)c(I)c1` [Amiodarone], the IC50 is 1740 nM.
